# Source: patent US10202420B2, “Methods and compositions for treatment of cartilage and disc tissue pathologies” (THE ROYAL INSTITUTION FOR ADVANCEMENT OF LEARNING/MCGILL …, priority 2013, dated 2019)
# Not every detail of the peptide structures is certain; ends, links or a residue may be inferred. Where no end group is shown, it is not given here.
# Columns and labels:
# aggrecan = assay: Western blot of aggrecan (anti-G1) in OA cartilage explants; format: cell-based, human; conditions: 21 days
# ADAMTS-5 = ADAMTS-5 gene expression, real time PCR, AF cells; format: cell-based, bovine; conditions: 1 μg/mL, day 7, vs controls
# [1] = tested on: rabbit model of disc degeneration; conditions: cited from earlier work
# type II collagen = assay: Western blot of type II collagen in OA cartilage explants; format: cell-based, human; conditions: 21 days
# type X collagen (Col X) = assay: Western blot of type X collagen in OA cartilage explants; format: cell-based, human; conditions: Link N 1 μg/ml + IL-1β 5 ng/ml, 21 days
# [2] = tested on: annulus fibrosus (AF) bovine cells; assay: GAG release into culture media (DMMB), alginate beads; format: cell-based; conditions: 1 μg/ml, days 3-18, vs control
# [3] = tested on: neurotrophin (TRKA and TRKB) and Substance P (TAC1R) receptors; assay: Cytokine-stimulated neurotrophin and Substance P receptor gene expression in AF cells; format: cell-based; conditions: AF cells from grade 2 human discs, 24 hrs
# [4] = tested on: human nucleus pulposus (NP) cells; assay: Proteoglycan synthesis by 35SO4 incorporation, cells in alginate beads; format: cell-based; conditions: 48 h
# Description: (§1) Human thoracolumbar spines were retrieved through the Transplant Quebec organ donation program. Discs were obtained from 7 donors, 1 male and 6 female, with a mean age of 29.6 years and an age range of 16 to 47 years (Table 1). Donors having had recent chemotherapy, radiation therapies to the spine, or significant long-standing paralysis were excluded from the study. Spine retrieval was performed within 8 h of death. Discs with calcification and loss of disc height were not included in the study. All procedures were approved by the institutional review board of the Montreal General Hospital.
# (§2) Human and bovine IVDs were separated from the adjoining vertebral body and divided into NP and AF for bovine IVDs and NP and inner annulus fibrosus (iAF) for human IVDs. Tissue from the human outer annulus fibrosus (oAF) was not used for cell isolation in this study. Cells were enzymatically isolated from each region as previously described (63). Briefly, NP and AF tissues were dissected into approximately 2-mm thick pieces, washed twice in PBS containing 50 μg/mL gentamicin, […] and 0.25 μg/mL fungizone, then digested with 0.2% pronase for 1 h, followed by collagenase type IA at 0.01% for NP and 0.04% for AF tissue for 4 h in serum free DMEM.
# (§3) To compare the metabolic response to the various Link N peptides, freshly isolated human and bovine cells from NP and AF regions were embedded in 1.2% alginate beads, as previously described (65). Cells in alginate beads were cultured at 37° C., 5% CO2 in DMEM, containing 4.5 g/L glucose and supplemented with 10% FCS, 25 mmol/L HEPES, 50 μg/mL gentamicin sulphate, 0.25 μg/mL fungizone, 50 μg/mL L-ascorbate, and 2 mmol/L GlutaMAX. The beads were stabilized for 7 days and cell viability was assessed by Live/Dead® assay prior to further treatment. 5 beads per well were then cultured in 48 well plates in the presence of equimolar concentrations of either Link N (1 μg/mL), R-Link N (1 μg/mL), S-Link N (1 μg/mL), Link N 1-8 (0.5 μg/mL) or Link N 9-16 (0.5 μg/mL) in 0.5 mL DMEM. 25 μCi/mL ^35SO4 was added to the medium to allow assessment of proteoglycan synthesis (66). In addition, beads were exposed for 48 h to IL-1β (10 ng/mL) alone, or to a combination of peptides and IL-1β (51). At the end of the culture period, medium was collected and dialyzed exhaustively against miliQ water at […] (Spectra/Por® 3), followed by cold chase with 1M MgSO4 for 2 h to remove any remaining unincorporated ^35SO4. The ^35SO4 incorporation was measured using a beta scintillation counter (Beckman Coulter LS6500, Beckman Coulter, Mississauga, Canada).
# [5] = tested on: human inner annulus fibrosus (iAF) cells; assay: as above; format: cell-based; conditions: human AF (iAF) cells, 48 h
# Description: as §1, §2, §3
# NGF = NGF release by grade 4 AF cells, Western blot; format: cell-based; conditions: grade 4 human AF cells
# [6] = rabbit annular puncture model, 100 micrograms Link N
# [7] = 16-mer peptides 1 μg/mL, 8-mer peptides 0.5 μg/mL, vs medium alone
# [8] = IL-1β 10 ng/mL, vs IL-1-containing medium
sequence,measurement,setting,value
"DHLSDNYTLDHDRAIH [Link N, DHLSDNYTLDHDRAIH]","content of aggrecan G1 containing fragments, with IL-1",aggrecan; Link N 1 μg/ml + IL-1 5 ng/ml,significantly increased the quantity to a level comparable to the Link N alone treated explants
same,content of aggrecan G1 containing fragments,"aggrecan; Link N 1 μg/ml, vs control explants",increased significantly
same,ADAMTS-5 expression,ADAMTS-5,upregulated
same,IVD disc height,"[1]; 100 micrograms of Link N in 10 microliters of saline 2 weeks after L2/3 annular puncture, 14 weeks after injection",significantly increased
same,ADAMTS-4 proteinase expression,[1]; [6],significantly reduced
same,Aggrecan mRNA in AF and NP cells,[1]; [6],significantly increased
same,MMP-3 proteinase expression,[1]; [6],significantly reduced
same,quantity of extractable type II collagen in the presence of IL-1β,"type II collagen; Link N 1 μg/ml + IL-1β 5 ng/ml, vs IL-1β alone",increase in the quantities of type II collagen
same,quantity of extractable type II collagen,"type II collagen; Link N 1 μg/ml alone, vs control explants",lower than in Link N supplemented explants although not significant
same,IL-1β induced Col X expression,type X collagen (Col X),suppresses
same,GAG release into the culture medium,[2],significantly higher than the control starting from day 6
same,IL-1beta stimulated expression of neurotrophin (TRKA and TRKB) and Substance P (TAC1R) receptors,[3]; Link N 1 μg/ml + IL-1β 10 ng/ml,suppresses
same,TNFα stimulated expression of neurotrophin (TRKA and TRKB) and Substance P (TAC1R) receptors,[3]; Link N 1 μg/ml + TNFα 100 ng/ml,suppresses
same,proteoglycan synthesis (35SO4 incorporation),[4]; [7],significant increase
same,proteoglycan synthesis (35SO4 incorporation) in the presence of IL-1β,[4]; [8],can promote proteoglycan synthesis
same,proteoglycan synthesis (35SO4 incorporation),[5]; [7],significant increase
same,proteoglycan synthesis (35SO4 incorporation) in the presence of IL-1β,[5]; [8],can promote proteoglycan synthesis
same,IL-1 beta induced NGF release,NGF,inhibit suppresses IL-1 beta induced NGF release
